Earlier results in US20200262925A1, “Combination Therapy For Treatment Of B-Cell Malignancies” (Janssen Biotech, Inc., priority 2019, published 2020).
At least one structure is not confirmed: it was looked up by name or label, or the drawing left a doubt.

Test system: GCB subtype DLBCL
Details: single-agent, previously reported

**Q.** With C=CC(=O)N1CCC[C@@H](n2nc(-c3ccc(Oc4ccccc4)cc3)c3c(N)ncnc32)C1 [ibrutinib] as the molecule, how does the ORR read?
**A.** 5%
